Experimental findings from article PMC8324811 are described below.

Sequences of proteins named here, by UniProt entry; tags and fusion partners are left off.
UniProt Q9Y2Y4: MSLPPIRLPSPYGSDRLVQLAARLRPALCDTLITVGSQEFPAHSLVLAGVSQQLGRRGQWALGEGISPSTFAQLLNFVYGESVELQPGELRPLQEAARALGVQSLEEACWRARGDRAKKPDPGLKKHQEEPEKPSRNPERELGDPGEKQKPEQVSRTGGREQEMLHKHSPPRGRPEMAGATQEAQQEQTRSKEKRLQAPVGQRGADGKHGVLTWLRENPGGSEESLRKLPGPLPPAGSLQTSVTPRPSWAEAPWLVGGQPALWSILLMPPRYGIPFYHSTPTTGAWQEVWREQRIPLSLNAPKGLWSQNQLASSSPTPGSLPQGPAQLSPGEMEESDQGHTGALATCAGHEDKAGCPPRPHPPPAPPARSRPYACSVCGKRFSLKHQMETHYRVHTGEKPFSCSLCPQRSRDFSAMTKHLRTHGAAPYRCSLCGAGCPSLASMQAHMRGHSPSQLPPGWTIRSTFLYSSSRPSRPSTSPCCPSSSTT
UniProt P06537: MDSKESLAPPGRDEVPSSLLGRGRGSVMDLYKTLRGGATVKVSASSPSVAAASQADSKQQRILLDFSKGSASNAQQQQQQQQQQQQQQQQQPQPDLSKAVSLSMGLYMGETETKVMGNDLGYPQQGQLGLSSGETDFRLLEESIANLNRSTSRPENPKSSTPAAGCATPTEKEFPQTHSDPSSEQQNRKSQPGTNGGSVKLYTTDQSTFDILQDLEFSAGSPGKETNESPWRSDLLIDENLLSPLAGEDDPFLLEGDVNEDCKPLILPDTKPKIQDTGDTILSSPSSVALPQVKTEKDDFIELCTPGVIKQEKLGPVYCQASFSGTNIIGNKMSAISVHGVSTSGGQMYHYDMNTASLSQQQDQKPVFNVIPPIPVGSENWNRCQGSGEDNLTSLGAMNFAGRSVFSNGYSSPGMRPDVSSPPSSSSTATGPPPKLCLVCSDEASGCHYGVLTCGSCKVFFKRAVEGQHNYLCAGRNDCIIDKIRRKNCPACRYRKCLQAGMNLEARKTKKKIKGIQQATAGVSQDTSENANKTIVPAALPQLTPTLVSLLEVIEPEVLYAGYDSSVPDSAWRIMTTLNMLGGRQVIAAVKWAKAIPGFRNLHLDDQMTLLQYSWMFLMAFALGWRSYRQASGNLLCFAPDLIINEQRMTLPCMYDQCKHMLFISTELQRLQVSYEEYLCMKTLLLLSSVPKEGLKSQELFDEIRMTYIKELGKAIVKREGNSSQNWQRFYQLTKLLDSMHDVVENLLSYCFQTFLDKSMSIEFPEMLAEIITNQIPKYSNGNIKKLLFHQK
UniProt P04150: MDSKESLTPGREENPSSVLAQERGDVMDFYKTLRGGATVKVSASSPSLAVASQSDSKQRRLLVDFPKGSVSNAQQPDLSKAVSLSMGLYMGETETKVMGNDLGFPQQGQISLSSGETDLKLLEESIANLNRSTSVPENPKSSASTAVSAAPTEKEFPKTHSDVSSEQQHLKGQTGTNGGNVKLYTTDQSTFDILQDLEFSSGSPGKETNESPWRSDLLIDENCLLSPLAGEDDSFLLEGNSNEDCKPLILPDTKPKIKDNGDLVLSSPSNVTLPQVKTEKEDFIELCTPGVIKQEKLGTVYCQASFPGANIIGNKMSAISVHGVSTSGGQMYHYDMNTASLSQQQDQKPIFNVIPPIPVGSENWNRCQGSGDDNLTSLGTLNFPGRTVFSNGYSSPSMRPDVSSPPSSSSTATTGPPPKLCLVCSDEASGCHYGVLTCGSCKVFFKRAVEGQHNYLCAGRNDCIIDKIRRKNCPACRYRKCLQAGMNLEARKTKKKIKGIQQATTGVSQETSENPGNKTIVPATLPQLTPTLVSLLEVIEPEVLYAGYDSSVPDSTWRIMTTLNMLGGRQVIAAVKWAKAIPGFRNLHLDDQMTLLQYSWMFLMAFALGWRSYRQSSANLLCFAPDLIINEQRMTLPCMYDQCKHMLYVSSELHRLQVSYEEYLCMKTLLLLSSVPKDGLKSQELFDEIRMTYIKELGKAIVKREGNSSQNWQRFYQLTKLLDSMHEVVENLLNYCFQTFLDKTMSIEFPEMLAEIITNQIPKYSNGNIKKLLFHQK
UniProt Q9JKD9: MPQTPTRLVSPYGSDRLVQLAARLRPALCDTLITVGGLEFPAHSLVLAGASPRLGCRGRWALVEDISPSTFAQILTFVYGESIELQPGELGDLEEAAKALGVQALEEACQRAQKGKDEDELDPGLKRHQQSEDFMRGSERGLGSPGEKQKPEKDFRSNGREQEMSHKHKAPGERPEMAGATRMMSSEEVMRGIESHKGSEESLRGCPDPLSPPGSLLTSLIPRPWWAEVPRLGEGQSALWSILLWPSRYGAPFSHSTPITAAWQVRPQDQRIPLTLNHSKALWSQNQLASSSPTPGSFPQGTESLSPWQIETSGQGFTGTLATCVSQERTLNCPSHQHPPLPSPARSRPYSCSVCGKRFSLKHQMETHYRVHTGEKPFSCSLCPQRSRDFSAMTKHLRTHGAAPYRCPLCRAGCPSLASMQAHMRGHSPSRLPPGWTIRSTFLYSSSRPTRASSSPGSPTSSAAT

No constants are given. Whether binding was seen depends on the method and setting. For some of these results: In cells and extracts the contact can be indirect. Some entries that bind do so weakly or less than the wild type.

Assay [1] has as its target flag-ZBTB32 (pMet-Flag-ZBTB32) (UniProt Q9Y2Y4). The assay is described as follows: co-IP; HEK293T transfected with flag-ZBTB32 and CFP-GRα; vehicle or 1 μM Dex for 2h; IP with anti-Flag M2 beads overnight at 4°C; washes with 150 mM NaCl and 0.5% Triton X-100; blots with anti-GR and anti-Flag.
The target in assay [2] is glucocorticoid receptor, endogenous in mouse adrenal glands (mouse (endogenous in adrenal glands)) (UniProt P06537). Briefly: co-IP; adrenal gland lysates (RIPA) of mice injected with PBS or Dex (200 μg, 2h); IP with anti-GR (H300, sc-8992) on Dynabeads; blots with anti-GR (G5) and anti-ZBTB32; control IgG instead of anti-GR.
Assay [3] has as its target human glucocorticoid receptor alpha, MAPPIT bait (pCLG-human GRa) (human) (UniProt P04150). Briefly: two-hybrid; one-to-one MAPPIT validation in HEK293T cells (3 independent experiments); GR bait cDNA and prey cDNA transfected; vehicle or 1 μM Dex for 24h; Luciferase reporter; empty vector as negative control. In general terms: Reporter assays use an easily measured gene product as a stand-in for the process of interest.

For assay [4] the target is unchanged. Briefly: two-hybrid; MAPPIT array screen in HEK293T cells; GR bait against a prey array (human ORFeome V5.1, 12,000 genes); independent screens without ligand and with ligand (Dex); STAT3-responsive rPAP-Luciferase reporter.

As to “CFP-GRα (pMet7-CFP-GRa) (from UniProt P04150 1-777)”, in assay [1], the binding result is on record as “binds”.

In the case of “ZBTB32, endogenous in mouse adrenal glands (from UniProt Q9JKD9 1-465)”, the binding result in assay [2] was “binds”.

For “human ZBTB32, MAPPIT prey (pCLG-human ZBTB32) (from UniProt Q9Y2Y4 1-487)”, the binding result in assay [3] and in assay [4] was “binds” in each case.
